Assay results reported in PMC12542728.
The exact form of at least one protein or probe is not confirmed.

Test system: LeCzcR (phosphorylated with acetyl phosphate) (Lysobacter enzymogenes YC36)
Experiment: EMSA
Details: 30 mM acetyl phosphate, EMSA 10 uL, 20 ng biotin-DNA, 20 ng unlabeled competitor or 40 ng unrelated DNA, 25 C 30 min, 6% native PAGE, recombinant protein, residues 1-224, label: 5'-biotin on forward primer, probe letters rebuilt from the primers and the genome

Binding result, binds:
GGCCGGGTGAGTTTTGGTGAGCGAAGGTGAAGCAGATGAACGCCAGAGGCCGGCATTCGCGCATGCTGCTGGCATTATTTGTGGAAATTTCGATCACTCTTGATGCGCACGGCACCGCCGCGCGCGGGATCGTCCGCGCTCGAGGACCGCGACCGCACGGCGGCGACTCGCGAACCGCAGGCGTCGGCGCGGCCCACCCGCCCTGGCGATCCGGTCTAGCCGCAATCCGCCCCTACCA (double strand) [Lepsl promoter]
TGGTGGTGGTCGGCCCGGTTATGCGCTCGCGCGCTCCGTGACGGCCGGACAGAGTGCTGCAGATAATGCCGGCGAATATTCGCGGCTAGGCCGCGGCGCCGTCAAAGGCGCAGGCCCGATTATCCTGCGACGCGGATCATTCTTTGGAAT (double strand) [Lehsaf promoter]
GGGTCGCCGATGATCGCGCAACCGCGCGCCGCGCTGAACCCTCTTTTGGCGGAGGCCGCGCCGCGCACGGGCCAAGCCGGCAGATGCGGTAAACCCCGGGGCGCGCATTCAGCTTCGACGGTAATCGCTTTCTTCCGCATCCGCGCCGGCGCGCGCGGCCCGGCATGGACGATCTGCGGCGCCGATCACTGACAGCGCTGTCAGCCACGGGACAAGGTGCGGCCCGT (double strand) [LegluB promoter]
